Data from US20250170103A1, “4-(6-OXO-2-(TRIFLUOROMETHYL)-3,6-DIHYDROCHROMENO[7,8-D]IMIDAZOL-8-YL)BENZONITRILE FOR USE IN THE TREATMENT OF DISEASES AND CONDITIONS ASSOCIATED WITH MOVEMENT DISORDERS” (OnTrack Therapeutics Limited, priority 2022, published 2025).

Tested on: primary SOD1 transgenic spinal cord motor neurons injured with glutamate
Assay: In vitro ALS model: glutamate-injured primary spinal motor neurons (MAP2/TDP43, 24 hours)
Assay type: cell-based, rat
Settings: positive controls: Riluzole 5 μM, BDNF 50 ng/ml, glutamate 5 μM 20 min, compared to the control, FIG. 5
Description: Cells were mechanically dissociated by three forced passages through the tip of a 10-ml pipette. Cells were then centrifuged at 515×g for 10 min at 4° C. […] Viable cells were counted in a Neubauer cytometer, using the trypan blue exclusion test. […] The medium was changed every 2 days.

## Nc1nc2ccc(OC(F)(F)F)cc2s1 [Riluzole, reference compound]
  number of motor neurons: statistically significant increase in the number of motor neurons
